Test results published in the supplement of paper PMC8728848.
The other results are listed elsewhere or left out.

Target: Neu5Gc(a2-6)GalNAc
Assay: glycan array binding signal (z-score within array); higher = stronger binding
Settings: glycan notation: IUPAC condensed, linker removed
In short: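 The binding signal is a Z-score computed within each array. Data were drawn from 3228 arrays in the Consortium for Functional Glycomics database, restricted to those with a known protein sequence. Scores were averaged over arrays of the same protein sequence at different concentrations or buffers, and over linkers, and negative values can be taken as non-binding.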

B1: CD23 (Homo sapiens) (protein)
chain: MELQVSSGFVCNTCPEKWINFQRKCYYFGKGTKQWVHARYACDDMEGQLVSIHSPEEQDFLTKHASHTGSWIGLRNLDLKGEFIWVDGSHVDYSNWAPGEPTSRSQGEDCVMMRGSGRWNDAFCDRKLGAWVCDRLATCTPPASEGSAESMGPDSRPDPDGRLPTPSAPLHS
How did the “glycan array binding signal (z-score)” value turn out when B1 was run?
The value was -0.117.
